According to article PMC7656253:
No constants are given. Whether binding was seen depends on the method and setting. Some binding calls cover weakened binding; strength is not graded here.

By UniProt entry, the sequences of proteins in these tests, tags left out.
UniProt P52480: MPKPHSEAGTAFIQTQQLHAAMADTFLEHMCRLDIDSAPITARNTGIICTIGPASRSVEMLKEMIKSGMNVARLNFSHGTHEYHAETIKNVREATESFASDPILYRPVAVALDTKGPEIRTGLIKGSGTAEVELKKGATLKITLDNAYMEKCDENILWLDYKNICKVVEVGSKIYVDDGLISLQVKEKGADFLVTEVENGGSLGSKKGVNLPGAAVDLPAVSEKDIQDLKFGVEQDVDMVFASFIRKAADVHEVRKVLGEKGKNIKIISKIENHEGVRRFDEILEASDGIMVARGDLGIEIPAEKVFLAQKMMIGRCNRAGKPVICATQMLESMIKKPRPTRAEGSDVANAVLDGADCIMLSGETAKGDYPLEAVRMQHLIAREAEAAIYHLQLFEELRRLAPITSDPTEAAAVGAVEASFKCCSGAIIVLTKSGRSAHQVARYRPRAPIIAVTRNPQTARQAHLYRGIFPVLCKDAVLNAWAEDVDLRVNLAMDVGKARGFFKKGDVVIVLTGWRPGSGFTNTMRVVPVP

What was measured:
[1] = target: Valosin-containing protein (VCP), endogenous in mouse cortical neurons (mouse (endogenous in cultured cortical neurons)) (UniProt Q01853); test: DARTS (drug affinity responsive target stability); plasma membrane fraction lysate of cortical neurons incubated with recombinant PKM2 or vehicle for 30 min at room temperature; thermolysin 60 min at 37 °C; Western blot for VCP; only the binder purified
[2] = target: Valosin-containing protein (VCP), endogenous in mouse cortical neurons (mouse (endogenous in cultured cortical neurons)) (UniProt Q01853); test: DARTS (drug affinity responsive target stability); whole-cell lysate of cortical neurons (2 μg protein) incubated with 50 and 500 ng/ml recombinant PKM2 for 30 min at 24 °C; thermolysin 30 min at 37 °C; SDS-PAGE, silver stain; band identified by nanoLC-MS/MS; only the binder purified

Recombinant mouse pyruvate kinase isoform M2 (PKM2) (from UniProt P52480 1-531) (enzyme)
binding [1]: binds
binding [2]: binds
